According to patent US6576753B1, “DNA encoding human leukotriene C4 synthase” (The Brigham and Women's Hospital, Inc., priority 1994, dated 2003):
Some results were stated once for a whole list of compounds, not compound by compound. Some ranges recur; such a range may be that of the whole group of compounds.

The substances below were run on LTC4 synthase (assay: Conjugation of LTA4-ME with GSH by solubilized microsomes of COS cells transfected with wild-type or mutant LTC4 synthase). Conditions: microsomal assay, versus wild type.

Increase of the Km of GSH, 5-15 fold:
Y59F: LTC4 synthase point mutant, Y93F: LTC4 synthase point mutant, Y97F: LTC4 synthase point mutant
